Test results reported in patent publication US20250002470A1, “NITROGEN-CONTAINING COMPOUND, PREPARATION METHOD THEREFOR AND APPLICATION THEREOF” (ZHEJIANG AIXPLORER BIOTECH CO., LTD., priority 2021, published 2025).

Assay: In vivo pharmacokinetic evaluation in mice (IV and PO)
Conditions: mouse, CD-1 mice
Description: CD-1 mice, after fasting overnight (free drinking), are divided into tail vein (IV) and gavage administration (PO) groups. The tail vein administration group collected 0.1 mL of blood from the orbital venous plexus before administration and 5 minutes, 15 minutes, 0.5 hours, 1 hour, 2 hours, 4 hours, 8 hours, 12 hours, and 24 hours after administration, and sample centrifugation at 4° C. for 5 minutes, and stored at −70° C. for testing. […] The plasma parent drug concentration was determined by LC-MS/MS.

clearance (in vivo, IV, 3 mg/kg): 40.5 mL/min/kg | AUC (plasma, IV, 3 mg/kg): 1590 ng·h/mL | half-life (plasma, IV, 3 mg/kg): 4.76 h | Vd (plasma, IV, 3 mg/kg, read-out: Vss): 5.89 L/kg | AUC (plasma, PO, 20 mg/kg): 5210 ng·h/mL | Cmax (plasma, PO, 20 mg/kg): 1710 ng/mL | half-life (plasma, PO, 20 mg/kg): 2.95 h
Structure (SMILES): Cc1c(N[C@@H]2CCCC[C@H]2O)nnc(-c2ccc(C(F)(F)F)cc2O)c1C [Comparison 4]
